Experimental data taken from publication PMC10461225 (Journal of Medicinal Chemistry, 2023).

experiment: general procedure: Fmoc solid-phase peptide synthesis; ProTide Rink amide resin; Oxyma Pure (0.25 M) and N,N'-diisopropyl carbodiimide (0.125 M); conditions: conjugation step, Agilent Eclipse XDB-C18, 10-90% acetonitrile gradient, tracked at 280 nm

Substance	final HPLC purity
GRASP(K2)–AlexaFluor546 conjugate	99%
GRASP(K2)–sulfo-Cy5 conjugate	95%
PEG2-C4-alkyne-biotin conjugated GRASP at K2-azido	95%
